System: trypsin
Assay: Flow cytometry of KnotBody scFv-Fc displayed on HEK293 cells (anti-Fc and trypsin staining)
Format: cell-based
Settings: HEK293, 15 dpt, after 13 days of blasticidin selection

B1: KB_A07: EETI-II knottin fused into VL CDR2, D1A12 VH; parental KnotBody, isotype control (antibody, V domains shown)
VH: EVQLVESGGGLVRPGGSLRLSCAASGFTFSSYAMSWVRQAPGKGLEWVSAISGSGGSTYYADSVKGRFTISRDNTKNSLYLQMTSLRADDTAFYYCVKDFGPGYGTGWFDYWGPGTLVTVSS
VL: DIQMTQSPSSLSASVGDRVTITCRASQSISSYLNWYQQKPGKAPKLLIYAAGVCPRILMRCKQDSDCLAGCVCGPNGFCGSRSGVPSRFSGSGSGTDFTLTISSLQPEDFATYYCQQGASPPYTFGQGTKVEIKRT
cells dual stained for Fc and trypsin: 34%

B2: KB_A12: EETI-II knottin fused into VL CDR2, D1A12 VH; parental KnotBody, isotype control (antibody, V domains shown)
VH: B1 VH
VL: QSVLTQPPSVSEAPRQRVTITCSGSSSNIGNNAVNWYQQLPGKAPKLLIYAAGRCPRILMRCKQDSDCLAGCVCGPNGFCGANSGVSDRFSAAKSGTSASLAINGLRSEDEADYYCAAWDDSLNGYVFGTGTKLTVLGQP
cells dual stained for Fc and trypsin: 11%

From US20230331827A1, “POTASSIUM CHANNEL INHIBITORS” (priority 2017, published 2023)
